Test results taken from patent US20240301493A1, “SYNTHETIC BARCODING OF CELL LINE BACKGROUND GENETICS” (Insitro, Inc., priority 2021, published 2024).
At least one structure is not confirmed: it was looked up by name or label, or the drawing left a doubt.

How the values were obtained:
[1] = test system: TSC2 ko neurons (pooled with wt and SETD1A het cells); assay: ViViD pooled optical screening: single-cell image embedding (DenseNet/UMAP) of pooled barcoded iPSC-derived neurons in astrocyte co-culture; assay type: cell-based, human; settings: 100 nM rapamycin from Day 20, replenished Day 22 and Day 24, fixed Day 27 (7 days); MAP2/phS6/Hoechst staining; FIGS. 16A-16B
[2] = test system: pooled neurons of all genotypes, including TSC2 ko neurons; assay: scRNAseq embedding of pooled ViViD-labelled neurons; assay type: cell-based, human; settings: 100 nM on Day 14 and Day 16, dissociated Day 17, neuron-only culture, FIG. 17

CO[C@H]1C[C@@H]2CC[C@@H](C)[C@@](O)(O2)C(=O)C(=O)N2CCCC[C@H]2C(=O)O[C@H]([C@H](C)C[C@@H]2CC[C@@H](O)[C@H](OC)C2)CC(=O)[C@H](C)/C=C(\C)[C@@H](O)[C@@H](OC)C(=O)[C@H](C)C[C@H](C)/C=C/C=C/C=C/1C [Rapamycin]
position of treated TSC2 ko neurons in the image feature embedding (UMAP) relative to the untreated TSC2 ko cluster [1]: group to other regions of the embedding
shift of cell populations in the scRNAseq embedding upon treatment [2]: pushed all cells of all gentoypes, including the TSC2 ko neurons, into a new population
shift of cell populations in the scRNAseq embedding upon treatment ([2]; listed as rapamycin): shift of all cells into a new population
